Laboratory results: paper PMC2701997
Results are given in words; binding and its absence hold for the method and conditions named. Binding seen in cells or lysates may run through a third protein. Some entries that bind do so weakly or less than the wild type. Where a sequence is shown, tags or fusion partners need not be part of it.

Target: T1, GFP-Lin7 (mouse) (UniProt Q8JZS0)
T1 sequence: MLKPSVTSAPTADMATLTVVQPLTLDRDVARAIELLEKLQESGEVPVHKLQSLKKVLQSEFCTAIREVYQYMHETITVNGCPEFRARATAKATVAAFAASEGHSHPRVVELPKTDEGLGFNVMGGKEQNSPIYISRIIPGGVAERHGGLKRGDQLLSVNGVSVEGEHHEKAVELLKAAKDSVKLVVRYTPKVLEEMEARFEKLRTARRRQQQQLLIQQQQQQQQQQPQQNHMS
Assay: co-IP; total extract (1 mg/ml) of WM115 cells expressing LIN7-GFP or GFP; anti-GFP 2 h at 4°C, protein A-Sepharose 90 min at 4°C; blots with anti-AQP-1 and anti-GFP

B1: AQP1 (protein, UniProt P29972 1-269)
chain: MASEFKKKLFWRAVVAEFLATTLFVFISIGSALGFKYPVGNNQTAVQDNVKVSLAFGLSIATLAQSVGHISGAHLNPAVTLGLLLSCQISIFRALMYIIAQCVGAIVATAILSGITSSLTGNSLGRNDLADGVNSGQGLGIEIIGTLQLVLCVLATTDRRRRDLGGSAPLAIGLSVALGHLLAIDYTGCGINPARSFGSAVITHNFSNHWIFWVGPFIGGALAVLIYDFILAPRSSDLTDRVKVWTSGQVEEYDLDADDINSRVEMKPK
With B1 the binding was “binds”.
